No constants are given. Whether binding was seen depends on the method and setting. In cells and extracts the contact can be indirect. Some binding calls cover weakened binding; strength is not graded here.
Key:
[1] = biological target: phosphorylated ataxia-telangiectasia-mutated kinase (pATM) (human (endogenous in placenta, Sw.71 and Bewo cells)) (UniProt Q13315); assay: co-IP; Sw.71 cells, untreated or treated with 1% CSE for 24 h; lysed in RIPA buffer with 50 U/mL Benzonase and protease/phosphatase inhibitors; 300 ug lysate, IP with anti-pATM or anti-MRE11 overnight at 4 C, A/G-agarose beads, western blot for RAGE
[2] = biological target: T1, double-strand break repair protein MRE11 (human (endogenous in placenta, Sw.71 and Bewo cells)) (UniProt P49959); assay: as above
T1 sequence: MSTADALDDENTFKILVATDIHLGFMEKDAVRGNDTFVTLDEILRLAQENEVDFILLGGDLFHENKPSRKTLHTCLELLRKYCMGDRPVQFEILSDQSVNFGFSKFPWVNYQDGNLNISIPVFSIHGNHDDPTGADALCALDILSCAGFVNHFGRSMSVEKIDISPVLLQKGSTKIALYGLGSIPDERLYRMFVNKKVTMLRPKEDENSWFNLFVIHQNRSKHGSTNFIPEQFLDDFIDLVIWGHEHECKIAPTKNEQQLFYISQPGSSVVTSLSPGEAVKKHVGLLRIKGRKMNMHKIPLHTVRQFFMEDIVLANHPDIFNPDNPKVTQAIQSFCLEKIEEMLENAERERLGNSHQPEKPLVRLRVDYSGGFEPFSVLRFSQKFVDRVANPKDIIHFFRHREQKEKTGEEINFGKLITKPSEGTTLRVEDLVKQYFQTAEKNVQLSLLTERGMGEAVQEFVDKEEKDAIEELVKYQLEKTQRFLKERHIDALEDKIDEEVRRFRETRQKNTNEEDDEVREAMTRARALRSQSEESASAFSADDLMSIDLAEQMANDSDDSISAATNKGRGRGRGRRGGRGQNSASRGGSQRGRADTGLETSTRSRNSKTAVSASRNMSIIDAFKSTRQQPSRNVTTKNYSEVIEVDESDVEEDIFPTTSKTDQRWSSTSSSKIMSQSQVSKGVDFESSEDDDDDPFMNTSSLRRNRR

Sequences of proteins named here, by UniProt entry; tags and fusion partners are left off. A change or cut given only in a name is not applied to a line headed by its entry. Residues count along the entry.
UniProt Q13315: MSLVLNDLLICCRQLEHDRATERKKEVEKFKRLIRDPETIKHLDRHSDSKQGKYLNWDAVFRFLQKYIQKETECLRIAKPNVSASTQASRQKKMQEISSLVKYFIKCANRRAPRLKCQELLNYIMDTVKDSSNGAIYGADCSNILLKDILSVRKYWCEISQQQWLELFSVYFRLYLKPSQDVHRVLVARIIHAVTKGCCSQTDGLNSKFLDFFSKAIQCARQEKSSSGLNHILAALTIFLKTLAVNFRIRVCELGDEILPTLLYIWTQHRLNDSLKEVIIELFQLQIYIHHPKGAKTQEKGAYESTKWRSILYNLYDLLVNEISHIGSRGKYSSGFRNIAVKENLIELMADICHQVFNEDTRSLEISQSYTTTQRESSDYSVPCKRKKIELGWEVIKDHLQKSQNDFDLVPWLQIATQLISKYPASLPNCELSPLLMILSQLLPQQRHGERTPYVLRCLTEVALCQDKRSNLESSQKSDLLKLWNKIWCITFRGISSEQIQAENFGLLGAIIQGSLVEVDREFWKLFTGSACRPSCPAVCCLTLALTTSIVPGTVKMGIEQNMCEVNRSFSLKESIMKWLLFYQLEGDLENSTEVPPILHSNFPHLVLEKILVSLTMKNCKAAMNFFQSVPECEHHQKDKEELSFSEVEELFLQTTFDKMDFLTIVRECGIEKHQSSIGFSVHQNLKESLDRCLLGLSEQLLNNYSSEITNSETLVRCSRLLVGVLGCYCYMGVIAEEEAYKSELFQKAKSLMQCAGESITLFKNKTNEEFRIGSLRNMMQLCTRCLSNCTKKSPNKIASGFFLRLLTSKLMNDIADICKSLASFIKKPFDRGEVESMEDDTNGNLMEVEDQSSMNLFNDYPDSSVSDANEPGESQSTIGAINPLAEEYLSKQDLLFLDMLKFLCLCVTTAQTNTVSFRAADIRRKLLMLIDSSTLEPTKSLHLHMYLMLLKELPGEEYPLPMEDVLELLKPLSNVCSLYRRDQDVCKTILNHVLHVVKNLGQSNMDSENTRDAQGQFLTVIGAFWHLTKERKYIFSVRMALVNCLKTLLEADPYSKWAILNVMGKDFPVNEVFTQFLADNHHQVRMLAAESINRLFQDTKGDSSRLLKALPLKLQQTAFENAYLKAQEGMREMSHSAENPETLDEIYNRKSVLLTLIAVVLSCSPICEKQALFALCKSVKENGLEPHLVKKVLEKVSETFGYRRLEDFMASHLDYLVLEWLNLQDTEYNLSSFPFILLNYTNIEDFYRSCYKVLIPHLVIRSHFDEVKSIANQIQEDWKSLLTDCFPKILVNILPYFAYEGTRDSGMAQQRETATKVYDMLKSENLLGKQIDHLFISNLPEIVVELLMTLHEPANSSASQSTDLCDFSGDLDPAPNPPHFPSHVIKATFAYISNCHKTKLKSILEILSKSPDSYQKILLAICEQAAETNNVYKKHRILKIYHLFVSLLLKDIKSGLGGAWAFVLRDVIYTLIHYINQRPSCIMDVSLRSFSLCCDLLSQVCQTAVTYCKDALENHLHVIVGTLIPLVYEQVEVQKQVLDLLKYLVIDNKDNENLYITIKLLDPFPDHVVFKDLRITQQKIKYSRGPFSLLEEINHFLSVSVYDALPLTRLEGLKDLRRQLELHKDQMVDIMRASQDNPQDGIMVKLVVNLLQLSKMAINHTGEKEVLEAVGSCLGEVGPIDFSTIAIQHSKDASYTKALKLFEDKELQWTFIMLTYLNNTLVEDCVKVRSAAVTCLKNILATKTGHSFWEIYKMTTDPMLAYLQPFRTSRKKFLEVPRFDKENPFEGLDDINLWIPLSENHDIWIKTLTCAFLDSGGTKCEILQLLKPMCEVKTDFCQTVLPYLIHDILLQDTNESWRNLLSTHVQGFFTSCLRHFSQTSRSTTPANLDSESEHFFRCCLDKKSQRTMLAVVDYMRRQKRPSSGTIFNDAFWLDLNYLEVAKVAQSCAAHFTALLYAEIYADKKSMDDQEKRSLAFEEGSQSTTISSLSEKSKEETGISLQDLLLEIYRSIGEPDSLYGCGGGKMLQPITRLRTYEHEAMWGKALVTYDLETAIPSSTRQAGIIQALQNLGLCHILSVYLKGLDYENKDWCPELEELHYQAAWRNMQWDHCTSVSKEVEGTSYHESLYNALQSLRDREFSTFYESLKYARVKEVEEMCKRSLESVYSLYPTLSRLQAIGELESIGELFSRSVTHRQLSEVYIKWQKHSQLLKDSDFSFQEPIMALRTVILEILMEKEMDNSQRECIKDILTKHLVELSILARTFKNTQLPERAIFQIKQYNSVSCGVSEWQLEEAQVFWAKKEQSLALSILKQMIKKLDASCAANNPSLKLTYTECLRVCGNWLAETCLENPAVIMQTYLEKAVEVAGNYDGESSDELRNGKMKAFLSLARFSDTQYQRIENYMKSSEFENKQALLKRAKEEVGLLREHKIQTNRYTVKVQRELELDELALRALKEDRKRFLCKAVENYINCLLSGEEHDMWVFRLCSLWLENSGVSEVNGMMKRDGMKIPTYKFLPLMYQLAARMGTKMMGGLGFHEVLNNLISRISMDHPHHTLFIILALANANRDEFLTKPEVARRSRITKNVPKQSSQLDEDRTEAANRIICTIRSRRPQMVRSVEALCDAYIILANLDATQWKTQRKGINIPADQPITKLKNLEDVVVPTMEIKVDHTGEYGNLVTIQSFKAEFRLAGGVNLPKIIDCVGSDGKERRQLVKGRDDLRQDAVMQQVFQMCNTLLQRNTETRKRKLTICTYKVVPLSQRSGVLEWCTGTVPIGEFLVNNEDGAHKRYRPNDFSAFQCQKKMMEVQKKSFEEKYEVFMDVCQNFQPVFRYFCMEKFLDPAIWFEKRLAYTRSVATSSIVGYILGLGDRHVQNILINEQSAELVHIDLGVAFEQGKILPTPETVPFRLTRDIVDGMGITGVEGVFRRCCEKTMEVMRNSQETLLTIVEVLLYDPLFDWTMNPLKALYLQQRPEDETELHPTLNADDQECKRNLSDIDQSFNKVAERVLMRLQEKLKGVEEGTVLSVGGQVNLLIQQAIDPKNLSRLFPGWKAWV
UniProt Q15109, residues 23-404: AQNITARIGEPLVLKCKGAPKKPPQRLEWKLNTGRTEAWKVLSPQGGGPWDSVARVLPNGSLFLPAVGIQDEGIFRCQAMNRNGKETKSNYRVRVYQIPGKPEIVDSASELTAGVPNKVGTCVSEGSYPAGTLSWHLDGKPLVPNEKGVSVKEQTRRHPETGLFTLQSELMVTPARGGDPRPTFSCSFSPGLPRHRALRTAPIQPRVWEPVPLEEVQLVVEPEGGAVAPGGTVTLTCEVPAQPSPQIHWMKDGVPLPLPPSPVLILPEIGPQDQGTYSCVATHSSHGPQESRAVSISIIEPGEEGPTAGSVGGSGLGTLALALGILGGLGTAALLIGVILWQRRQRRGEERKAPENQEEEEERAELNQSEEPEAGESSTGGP

[3] = biological target: phosphorylated ataxia-telangiectasia-mutated kinase (pATM) (human (endogenous in placenta, Sw.71 and Bewo cells)) (UniProt Q13315); assay: co-IP; Bewo cells, untreated or treated with 1% CSE for 24 h; lysed in RIPA buffer with 50 U/mL Benzonase and protease/phosphatase inhibitors; 300 ug lysate, IP with anti-pATM or anti-MRE11 overnight at 4 C, A/G-agarose beads, western blot for RAGE
[4] = biological target: T1, double-strand break repair protein MRE11 (human (endogenous in placenta, Sw.71 and Bewo cells)); assay: as above
[5] = biological target: phosphorylated ataxia-telangiectasia-mutated kinase (pATM) (human (endogenous in placenta, Sw.71 and Bewo cells)) (UniProt Q13315); assay: co-IP; human placenta samples (control, PE, PTL); immunoprecipitation of pATM or MRE11, western blot for RAGE
[6] = biological target: T1, double-strand break repair protein MRE11 (human (endogenous in placenta, Sw.71 and Bewo cells)); assay: as above

binding [2]: binds
binding [4]: binds
binding [6]: binds
Substance: receptor for advanced glycation end-products (RAGE) (from UniProt Q15109 23-404)
binding [1]: binds
binding [3]: binds
binding [5]: binds

From PMC8069300
